Results deposited as PubChem BioAssay AID1159578 (Peter MacCallum Cancer Centre, 2015)
Here is one part, drawn at random, of about 18,000 reagents tested. Over the whole deposit, about 1,030 (5.7%) are marked active. 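Inactive calls also include pools with fewer than 3300 nuclei, whose migration was not assessed.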 Raw values are not corrected between plates. Entries without a mark were called inactive. Further read-outs or replicates are left out here. No sequences are given here.

Test: 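siRNA pools altering how lymphatic endothelial cells close a scratch wound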 (primary screen)
Cell system: human lymphatic endothelial cells
Knock-down reagent: siRNA pool against human genes, 40 nM
Duration: 48 h after transfection
Detection: 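Cells stained with dye and imaged after a scratch; covered wound area and nuclei counted, duplicates averaged, migration set against mock wells and turned into a robust z-score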
Direction: migration robust z-score: higher = faster migration into the scratch; nuclei per well: higher = more cells in the well
Hit rule: 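Migration changed when robust z exceeds 2 or falls below -2 and mean nuclei number is at least 3300; otherwise not called changed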
Meaning of the calls: active = migration changed; inactive = no migration change, or too few cells

With NOD1 (GeneID 10392) [SID255355041], what was measured?
migration robust z-score: 0.6; nuclei per well, duplicate mean: 6464

Which result is listed for ANKRD27 (GeneID 84079) [SID255361187]?
migration robust z-score: 1.37; nuclei per well, duplicate mean: 6400

What is on record for SURF6 (GeneID 6838) [SID255352706]?
migration robust z-score: 0.8; nuclei per well, duplicate mean: 6766

What is on record for SLC45A2 (GeneID 51151) [SID255357520]?
migration robust z-score: 0.94; nuclei per well, duplicate mean: 6286

What is on record for WDR36 (GeneID 134430) [SID255362972]?
migration robust z-score: 0.41; nuclei per well, duplicate mean: 5684

Which result is listed for TMEM125 (GeneID 128218) [SID255362784]?
migration robust z-score: -2.78 (active); nuclei per well, duplicate mean: 4851

What is on record for MC3R (GeneID 4159) [SID255350894]?
migration robust z-score: -0.96; nuclei per well, duplicate mean: 7396

For UGGT1 (GeneID 56886) [SID255359136], what was measured?
migration robust z-score: 0.62; nuclei per well, duplicate mean: 5384

What did the screen give for MRPL2 (GeneID 51069) [SID255357446]?
migration robust z-score: -3.51; nuclei per well, duplicate mean: 834

For DGCR6L (GeneID 85359) [SID255361669], what does the deposit list?
migration robust z-score: -0.46; nuclei per well, duplicate mean: 4452

Which result is listed for SULT1C2 (GeneID 6819) [SID255352693]?
migration robust z-score: -0.1; nuclei per well, duplicate mean: 4632

With SLC26A3 (GeneID 1811) [SID255349364], how do the results read?
migration robust z-score: -0.1; nuclei per well, duplicate mean: 6278

With RDH10 (GeneID 157506) [SID255363624], what was measured?
migration robust z-score: 0.99; nuclei per well, duplicate mean: 5620

What is on record for UGT1A8 (GeneID 54576) [SID255358092]?
migration robust z-score: 0.29; nuclei per well, duplicate mean: 6534

How did the screen score LCE1C (GeneID 353133) [SID255365273]?
migration robust z-score: 0.34; nuclei per well, duplicate mean: 5559

What is on record for KLRB1 (GeneID 3820) [SID255350656]?
migration robust z-score: 1.02; nuclei per well, duplicate mean: 6123

For IGSF5 (GeneID 150084) [SID255363437], what does the deposit list?
migration robust z-score: -0.05; nuclei per well, duplicate mean: 5768

With PCSK9 (GeneID 255738) [SID255364504], what was measured?
migration robust z-score: -0.21; nuclei per well, duplicate mean: 5990

What is on record for BAZ1B (GeneID 9031) [SID255353978]?
migration robust z-score: 1.46; nuclei per well, duplicate mean: 6669

With HAO2 (GeneID 51179) [SID255357540], what was measured?
migration robust z-score: -0.26; nuclei per well, duplicate mean: 5779

With FABP6 (GeneID 2172) [SID255349613], how do the results read?
migration robust z-score: -0.46; nuclei per well, duplicate mean: 5426

Part of the list above in another layout.
{"target": "UGGT1 (GeneID 56886)", "PubChem SID": "SID255359136", "migration robust z-score": 0.62, "nuclei per well, duplicate mean": 5384}
{"target": "MRPL2 (GeneID 51069)", "PubChem SID": "SID255357446", "migration robust z-score": -3.51, "nuclei per well, duplicate mean": 834}
